The inconclusive results got no clear call from the source; some entries with a clear call stand among them for comparison. For part of these data: Potencies beside an inconclusive call are fits to weak or partial responses and may not hold up. Active and inactive are the calls of the source. Calls follow the shape of the dose curve; as a rule, active = well fitted cell-killing curve with a large enough effect; inconclusive = small, poorly fitted or top-dose-only effect, or effect the other way; inactive = no such curve, though single readings can be large or run the other way.
Assays:
[1] = Quantitative High-Throughput drug screen in 47 multiple myeloma cell lines against the NCATS MIPE library collection: LP1_DSMZ cell viability assay (AID 1918982); also: nearly all actives have a fitted effect of over 35% in size
Procedure, shortened: (§1)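 Inhibition of viability over 48 h was scored by ATP content (CellTiter-Glo) in 500-cell wells. Zero and full viability were defined by media-only and DMSO-only wells.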

[2] = Quantitative High-Throughput drug screen in 47 multiple myeloma cell lines against the NCATS MIPE library collection: L363_DSMZ cell viability assay (AID 1918984); conditions: L363 myeloma viability, CellTiter-Glo ATP luminescence, 48 h; viability (% of control): at 45.8 µM (top of the series); also: nearly all actives have a fitted effect of over 40% in size
Procedure, shortened: as §1

[3] = Quantitative High-Throughput drug screen in 47 multiple myeloma cell lines against the NCATS MIPE library collection: KMS34_JCRB cell viability assay (AID 1918985); also: nearly all actives have a fitted effect of over 40% in size
Procedure, shortened: as §1

[4] = Quantitative High-Throughput drug screen in 47 multiple myeloma cell lines against the NCATS MIPE library collection: OCIMY5_PLB cell viability assay (AID 1918988); also: nearly all actives have a fitted effect of over 65% in size
Procedure, shortened: as §1

[5] = Quantitative High-Throughput drug screen in 47 multiple myeloma cell lines against the NCATS MIPE library collection: SKMM1_PLB cell viability assay (AID 1919863); conditions: SKMM1 myeloma viability, CellTiter-Glo ATP, 48 h; viability: active compounds read low; also: nearly all actives have a fitted effect of over 35% in size
Procedure, shortened: as §1

[6] = Quantitative High-Throughput drug screen in 47 multiple myeloma cell lines against the NCATS MIPE library collection: XG6_PLB cell viability assay (AID 1919865); conditions: XG6 myeloma viability, CellTiter-Glo ATP luminescence, 48 h; viability (% of control): at 45.8 µM (top of the series); also: nearly all actives have a fitted effect of over 40% in size
Procedure, shortened: as §1

[7] = Quantitative High-Throughput drug screen in 47 multiple myeloma cell lines against the NCATS MIPE library collection: UTMC2_PLB cell viability assay (AID 1919868); conditions: CellTiter-Glo ATP luminescence, 48 h; viability (% of DMSO control): at 45.8 µM (top of the series); also: nearly all actives have a fitted effect of over 55% in size
Procedure, shortened: as §1

[8] = Quantitative High-Throughput drug screen in 47 multiple myeloma cell lines against the NCATS MIPE library collection: PCM6_Riken cell viability assay (AID 1919870); also: nearly all actives have a fitted effect of over 30% in size
Procedure, shortened: as §1

[9] = Quantitative High-Throughput drug screen in 47 multiple myeloma cell lines against the NCATS MIPE library collection: KMS11_JCRBsus cell viability assay (AID 1919873); also: nearly all actives have a fitted effect of over 50% in size
Procedure, shortened: as §1

[10] = Quantitative High-Throughput drug screen in 47 multiple myeloma cell lines against the NCATS MIPE library collection: KMS28BM_JCRB cell viability assay (AID 1919874); also: nearly all actives have a fitted effect of over 35% in size
Procedure, shortened: as §1

[11] = Quantitative High-Throughput drug screen in 47 multiple myeloma cell lines against the NCATS MIPE library collection: OCIMY7_PLB cell viability assay (AID 1918987); conditions: OCI-MY7 myeloma viability, CellTiter-Glo ATP, 48 h; viability (% of DMSO): at 45.8 µM (top of the series); also: nearly all actives have a fitted effect of over 65% in size
Procedure, shortened: as §1

[12] = Quantitative High-Throughput drug screen in 47 multiple myeloma cell lines against the NCATS MIPE library collection: U266_ATCC cell viability assay (AID 1919864); conditions: U266 myeloma viability, CellTiter-Glo ATP luminescence, 48 h; viability (% of DMSO control): at 45.8 µM (top of the series); also: nearly all actives have a fitted effect of over 35% in size
Procedure, shortened: as §1

[13] = Quantitative High-Throughput drug screen in 47 multiple myeloma cell lines against the NCATS MIPE library collection: VP6_DJ cell viability assay (AID 1919867); conditions: ATP luminescence, 48 h; viability (% of DMSO): at 45.8 µM (top of the series); also: nearly all actives have a fitted effect of over 40% in size
Procedure, shortened: as §1

[14] = Quantitative High-Throughput drug screen in 47 multiple myeloma cell lines against the NCATS MIPE library collection: PE2_PLB cell viability assay (AID 1919869); conditions: PE2_PLB myeloma cells viability, ATP luminescence, 48 h; viability (% of control): at 45.8 µM (top of the series); also: nearly all actives have a fitted effect of over 35% in size
Procedure, shortened: as §1

[15] = Quantitative High-Throughput drug screen in 47 multiple myeloma cell lines against the NCATS MIPE library collection: OPM2_DSMZ cell viability assay (AID 1919872); also: nearly all actives have a fitted effect of over 30% in size
Procedure, shortened: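 Myeloma cell lines, 500 cells per well, exposed to MIPE 4.0 library compounds for 48 h at 37C, 5% CO2. Viability from ATP by CellTiter-Glo luminescence; normalised to DMSO (100%) and media-only (0%) wells.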

[16] = Quantitative High-Throughput drug screen in 47 multiple myeloma cell lines against the NCATS MIPE library collection: OPM1_PLB cell viability assay (AID 1918989); also: nearly all actives have a fitted effect of over 40% in size
Procedure, shortened: as §1

[17] = Quantitative High-Throughput drug screen in 47 multiple myeloma cell lines against the NCATS MIPE library collection: XG1_PLB cell viability assay (AID 1919866); conditions: CellTiter-Glo ATP, 48 h; viability: at 45.8 µM (top of the series); also: nearly all actives have a fitted effect of over 35% in size
Procedure, shortened: as §1

[18] = Quantitative High-Throughput drug screen in 47 multiple myeloma cell lines against the NCATS MIPE library collection: RPMI8226_ATCC cell viability assay (AID 1919871); conditions: RPMI8226 myeloma viability, CellTiter-Glo ATP luminescence, 48 h; viability (% of control): at 45.8 µM (top of the series); also: nearly all actives have a fitted effect of over 30% in size
Procedure, shortened: as §1
Potency is read from the fitted curve at half-maximal effect.

CC(C)(O)C(=O)Nc1ccc([N+](=O)[O-])c(C(F)(F)F)c1
active: Potency [6] 3.32 µM | Potency [8] 8.33 µM
inactive: Potency [3]
inconclusive: Potency [1] 37.2 µM [cytotoxic, single point] | Potency [2] 14.8 µM [cytotoxic, partial curve, poor fit] | Potency [4] 33.2 µM [cytotoxic, single point] | Potency [5] 33.2 µM [cytotoxic, single point] | Potency [7] 13.2 µM [cytotoxic, partial curve, poor fit] | Potency [9] 20.9 µM [cytotoxic, partial curve, poor fit] | Potency [10] 7.43 µM [cytotoxic, partial curve, poor fit]

CC[C@@H]1[C@@H](C)O[C@@](O)([C@@H](C)[C@H](O)[C@H](C)[C@H]2OC(=O)C=CC=C[C@@H](C)[C@@H]([C@@H](C)[C@@H](O)[C@H](C)[C@@]3(O)C[C@H](O[C@H]4C[C@H](O)[C@H](O)[C@H](C)O4)[C@H](CC)[C@@H](C)O3)OC(=O)C=CC=C[C@@H]2C)C[C@H]1O[C@H]1C[C@H](O)[C@H](O)[C@H](C)O1
inconclusive: Potency [12] 0.833 µM [cytotoxic, full curve, poor fit]
active: Potency [1] 0.59 µM | Potency [2] 0.372 µM | Potency [3] 0.935 µM | Potency [11] 0.662 µM | Potency [13] 0.469 µM | Potency [7] 1.05 µM | Potency [14] 0.833 µM | Potency [8] 0.743 µM | Potency [15] 0.372 µM

CC[C@H]1C=CC=CC[C@@H](C)[C@H](O)[C@@](C)(O)C(=O)[C@@H](C)[C@H](O)[C@@H](C)C(=O)[C@@H](C)[C@H](O)[C@@H](C)C=CC(=O)O[C@@H]2[C@@H](C)[C@H](CC1)O[C@]1(CC[C@H](C)[C@H](C[C@@H](C)O)O1)[C@H]2C
inconclusive: Potency [1] 23.5 µM [cytotoxic, partial curve, poor fit] | Potency [3] 14.8 µM [cytotoxic, partial curve, poor fit] | Potency [16] 23.5 µM [cytotoxic, partial curve, poor fit] | viability (% of control) [6] 5.7% [cytotoxic] | Potency [17] 11.8 µM [cytotoxic, partial curve, poor fit] | Potency [8] 14.8 µM [cytotoxic, partial curve, poor fit] | Potency [15] 37.2 µM [cytotoxic, partial curve, poor fit] | Potency [9] 26.4 µM [cytotoxic, partial curve, poor fit] | Potency [10] 26.4 µM [cytotoxic, partial curve, poor fit]
active: Potency [2] 0.001 µM | Potency [12] 20.9 µM | Potency [7] 0.001 µM

COC[C@H]1OC(=O)c2coc3c2[C@@]1(C)C1=C(C3=O)[C@@H]2CC[C@H](O)[C@@]2(C)C[C@@H]1OC(C)=O
inconclusive: Potency [1] 0.418 µM [cytotoxic, partial curve]
active: Potency [2] 2.35 µM | Potency [3] 2.09 µM | Potency [8] 3.72 µM | Potency [18] 2.96 µM | Potency [9] 1.66 µM

C=C[C@@H]1CN2CCC1C[C@H]2[C@H](O)c1ccnc2ccccc12 (stereo not given in full)
inconclusive: Potency [3] 0.59 µM [cytotoxic, partial curve, poor fit] | Potency [11] 11.8 µM [cytotoxic, partial curve, poor fit] | Potency [4] 23.5 µM [cytotoxic, partial curve, poor fit] | Potency [6] 14.8 µM [cytotoxic, partial curve] | Potency [7] 0.059 µM [cytotoxic, full curve, poor fit] | Potency [15] 20.9 µM [cytotoxic, partial curve] | Potency [9] 26.4 µM [cytotoxic, partial curve, poor fit] | Potency [10] 14.8 µM [cytotoxic, partial curve]
active: Potency [1] 10.5 µM | Potency [17] 16.6 µM

CC(O)=C(C#N)C(=O)Nc1cc(Br)ccc1Br
inactive: Potency [1] | Potency [6] | Potency [15]
inconclusive: Potency [2] 0.372 µM [cytotoxic, full curve, poor fit] | Potency [3] 1.32 µM [cytotoxic, full curve, poor fit] | Potency [11] 1.87 µM [cytotoxic, partial curve, poor fit] | Potency [16] 9.35 µM [cytotoxic, partial curve, poor fit] | Potency [12] 11.8 µM [cytotoxic, partial curve, poor fit] | Potency [7] 5.26 µM [cytotoxic, full curve, poor fit] | Potency [14] 5.26 µM [cytotoxic, partial curve, poor fit] | Potency [9] 0.0042 µM [cytotoxic, full curve, poor fit] | Potency [10] 9.35 µM [cytotoxic, partial curve, poor fit]

COc1ccc2c(c1)CN(C)CC2c1ccc(Cl)c(Cl)c1 (stereo not given)
active: Potency [2] 13.2 µM
inconclusive: Potency [1] 18.7 µM [cytotoxic, partial curve] | Potency [3] 8.33 µM [cytotoxic, full curve, poor fit] | Potency [11] 18.7 µM [cytotoxic, partial curve, poor fit] | Potency [5] 33.2 µM [cytotoxic, single point] | Potency [12] 33.2 µM [cytotoxic, single point] | Potency [6] 26.4 µM [cytotoxic, single point] | Potency [17] 33.2 µM [cytotoxic, single point] | Potency [7] 8.33 µM [cytotoxic, partial curve, poor fit] | Potency [14] 20.9 µM [cytotoxic, partial curve] | Potency [8] 23.5 µM [cytotoxic, single point] | Potency [18] 1.48 µM [cytotoxic, full curve] | Potency [15] 33.2 µM [cytotoxic, single point] | Potency [10] 26.4 µM [cytotoxic, partial curve]

N#C[C@H](O[C@@H]1O[C@H](CO[C@@H]2O[C@H](CO)[C@H](O)[C@H](O)[C@H]2O)[C@H](O)[C@H](O)[C@H]1O)c1ccccc1
active: Potency [3] 8.33 µM | Potency [11] 10.5 µM | Potency [4] 20.9 µM | Potency [17] 23.5 µM
inconclusive: Potency [1] 14.8 µM [cytotoxic, partial curve] | Potency [2] 10.5 µM [cytotoxic, partial curve, poor fit] | Potency [7] 37.2 µM [cytotoxic, single point] | Potency [15] 11.8 µM [cytotoxic, partial curve, poor fit]

CC(C)N[C@@H]1CCn2c(=O)[nH]c3cccc(c32)[C@@H]1O
active: Potency [3] 10.5 µM | Potency [12] 1.66 µM | Potency [6] 2.35 µM | Potency [7] 10.5 µM
inconclusive: Potency [1] 14.8 µM [cytotoxic, partial curve] | Potency [11] 8.33 µM [cytotoxic, full curve, poor fit] | Potency [5] 37.2 µM [cytotoxic, single point] | Potency [15] 16.6 µM [cytotoxic, partial curve, poor fit] | Potency [9] 5.9 µM [cytotoxic, partial curve, poor fit] | Potency [10] 0.0743 µM [cytotoxic, full curve, poor fit]

Cn1c(CCCC(=O)O)nc2cc(N(CCCl)CCCl)ccc21
active: Potency [11] 6.62 µM | Potency [6] 14.8 µM
inconclusive: Potency [1] 37.2 µM [rising, single point] | Potency [3] 20.9 µM [cytotoxic, single point] | Potency [12] 20.9 µM [cytotoxic, partial curve, poor fit] | Potency [7] 20.9 µM [cytotoxic, partial curve, poor fit] | Potency [8] 2.96 µM [cytotoxic, full curve, poor fit] | Potency [18] 3.72 µM [cytotoxic, partial curve, poor fit] | Potency [15] 0.187 µM [cytotoxic, full curve, poor fit]
inactive: Potency [2] | Potency [16] | Potency [13] | Potency [9]

COc1ccc(N(C(=O)Oc2c(C)cccc2C)c2ccnc(Nc3ccc(N4CCN(C)CC4)cc3)n2)c(OC)c1
active: Potency [3] 1.05 µM | Potency [4] 1.18 µM | Potency [17] 0.296 µM | viability (% of DMSO control) [7] 84%
inconclusive: Potency [1] 7.43 µM [cytotoxic, full curve, poor fit] | Potency [11] 0.166 µM [cytotoxic, full curve, poor fit] | Potency [5] 0.935 µM [cytotoxic, full curve, poor fit] | Potency [12] 4.18 µM [cytotoxic, partial curve] | Potency [15] 18.7 µM [cytotoxic, partial curve, poor fit]

C=C[C@@H]1CN2CCC1C[C@@H]2[C@@H](O)c1ccnc2ccccc12 (stereo not given in full)
active: Potency [12] 13.2 µM | Potency [6] 18.7 µM | Potency [17] 23.5 µM
inconclusive: Potency [1] 20.9 µM [cytotoxic, partial curve] | Potency [2] 1.32 µM [cytotoxic, partial curve, poor fit] | Potency [3] 20.9 µM [cytotoxic, partial curve] | Potency [7] 11.8 µM [cytotoxic, full curve, poor fit] | Potency [8] 26.4 µM [cytotoxic, single point] | Potency [18] 20.9 µM [cytotoxic, partial curve]

CC(C)[C@]12O[C@@H]1[C@@H]1O[C@]13[C@]1(O[C@H]1C[C@@H]1C4=C(CC[C@@]13C)C(=O)OC4)[C@H]2O
inactive: Potency [1] | Potency [3] | Potency [11] | Potency [4] | Potency [16] | Potency [12] | Potency [17] | Potency [7] | Potency [14] | Potency [8] | Potency [15] | Potency [9]
